# Results taken from PubChem BioAssay AID2685 (National Center for Advancing Translational Sciences (NCATS), 2010).
# Some of the results follow. The main result of the screen is listed elsewhere. These columns were measured beside it and carry no call. Most of these compounds were active or inconclusive in the main read-out, so they are no random draw. Words in brackets tell the shape of the fitted curve; partial curves, single points and poor fits give uncertain potencies.
# Assay: qHTS Assay for Lipid Storage Modulators in Drosophila S3 Cells;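 as to cell number change: cells counted by Cell Tracker Red CMTPX staining in the red channel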
# Conditions: BODIPY lipid droplet fluorescence, 18-24 h; for cell number change: measured here: cell count max response, cells fed with added oleic acid
# In short: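 Laser-scanning cytometry quantifies lipid droplet accumulation (500–530 nm total intensity; droplet/cell object ratio) in oleic acid-fed (400 uM added) Drosophila S3 cells treated with a concentration series. 20 uM Triacsin C defined 100% inhibition.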
# [1] = measured here: lipid fluorescence (Fed channel) AC50, cells fed with added oleic acid
# [2] = measured here: cell number channel AC50, cells fed with added oleic acid
Structure (SMILES),cell number change [%],AC50 [1],AC50 [2]
Cc1ccc2nc(NC(=O)CSCc3ccccc3)sc2c1,7.65,"2.06 µM [rising, partial curve]",
CCc1ccc(N(C(=O)c2csnn2)C(C(=O)NC2CCCCC2)c2cccnc2)cc1 (configuration not stated),2.92,,
CCOCCn1c(SCc2ccc(F)cc2)nc2c1c(=O)[nH]c(=O)n2C,,,"2.59 µM [rising, single point]"
Cc1noc(C)c1C(=O)Nc1cccc2ncccc12,17.9,,
CCOC(=O)C(NC(=O)c1cccc(Cl)c1)(OCc1ccc(F)cc1)C(F)(F)F (configuration not stated),-23.2,"3.66 µM [rising, partial curve]",
Nn1c(SCC(=O)Nc2ccc(F)cc2F)nnc1C1CCCCC1,43.2,,"14.6 µM [rising, partial curve, poor fit]"
Cc1ccc(-n2c(SCC(=O)N3CCOCC3)nc(O)cc2=O)cc1,15.6,"6.51 µM [rising, single point]",
O=C1CCN(Cc2ccc([N+](=O)[O-])cc2)CCN1CCO,7.77,,
COc1cccc(NC(=O)c2nnn(CC(=O)Nc3cc(C)cc(C)c3)c2N)c1,43.2,,"8.2 µM [rising, single point]"
O=C(/C=C/c1ccc(OCCCF)cc1)NCc1cccc(Cl)c1,23.5,"0.00411 µM [rising, full curve, poor fit]",
O=C1CCCC/C1=C/NCc1ccccc1,15.7,,
COc1ccc2c(CC(=O)NNC(=O)c3cccs3)coc2c1,1.16,"18.4 µM [falling, single point]",
Cc1ccc2nc(COc3ccc(N(C)S(=O)(=O)c4ccccc4)cc3)cc(=O)n2c1,-60.2,,"20.6 µM [falling, single point]"
O=C(CN1CCC(N2CCCCC2)CC1)N1CCOCC1,-20.9,"0.366 µM [falling, full curve, poor fit]",
CCO/C(=C/c1sc2ccc(OC)cc2[n+]1CCCS(=O)(=O)[O-])CC,,"29.1 µM [falling, single point]",
COc1ccc(C(=O)/C=C/Nc2c(C)n(C)n(-c3ccccc3)c2=O)cc1OC,-5.49,"0.651 µM [falling, single point]",
CC(C)(C)N1C(=O)[C@H]2[C@@H](c3ccc(Br)cc3)N3C(=O)N(c4cccc(Br)c4)C(=O)[C@@]3(Cc3ccccc3)[C@H]2C1=O,50.3,"29.1 µM [rising, single point]","29.1 µM [rising, single point]"
CCN(CCCn1c(=S)[nH]c2ncccc2c1=O)c1ccccc1,172,"23.1 µM [rising, partial curve]","29.1 µM [rising, single point]"
CSc1cccc(NC(=O)Nc2ccc(Cl)cc2)c1,-31.2,"0.731 µM [rising, full curve, poor fit]",
N#Cc1ccc(COC(=O)C2CC(=O)N(CCc3ccccc3)C2)cc1 (configuration not stated),10.4,,
O=C(Cc1ccccc1)Nc1ccc(NC(=O)C2CC2)nc1,28.1,"11.6 µM [rising, partial curve, poor fit]",
CSc1nc2ccc(NC(=O)C3CCCO3)cc2s1 (configuration not stated),7.29,"6.51 µM [rising, single point]",

Structure (SMILES),cell number change [%],AC50 [1],AC50 [2]
OCC1(Cc2cccc(Cl)c2)CCCN(Cc2ccc(F)c(F)c2)C1 (configuration not stated),-27.5,,
Cc1ccc(NC(=O)c2nc(S(=O)(=O)Cc3ccccc3C)ncc2Cl)cc1C,-21.5,,
CCCn1nnnc1SCC(=O)N1C(C)CCCC1C (configuration not stated),10.3,,
Cc1ccc(C)c(N2CCN(C(c3ccc(N(C)C)cc3)c3nnnn3C(C)(C)C)CC2)c1 (configuration not stated),1.55,"6.51 µM [falling, single point]",
CC(=O)c1ccccc1NC(=O)COC(=O)c1ccc2c(c1)nc(C)n2-c1ccccc1,4.1,"13 µM [rising, partial curve]",
COc1ccc(N=c2cc(-c3ccc(O)cc3)oc3ccccc23)cc1,15.6,"0.411 µM [rising, full curve, poor fit]",
O=C(O)CC1S/C(=N\N=C2\C(=O)Nc3ccccc32)N(c2ccc(O)cc2)C1=O (configuration not stated),-2.11,"6.51 µM [rising, single point]",
Cc1ccc(S(=O)(=O)N(CC(=O)Nc2cccc(C)c2C)C(=O)N2CCN(C)CC2)cc1,-3.23,"0.58 µM [falling, full curve, poor fit]",
O=C(O)c1ccc(/C=N/Nc2cccc(C(F)(F)F)c2)cc1,39.9,"2.91 µM [rising, full curve]",
COCCCN(C(=O)C1CCC1)c1c(N)n(Cc2ccccc2)c(=O)[nH]c1=O,6.26,"0.13 µM [rising, full curve, poor fit]",
CC(C)CC1Nc2ncnc(N3CCN(c4ccccc4)CC3)c2N(Cc2ccc(Cl)cc2)C1=O (configuration not stated),26.3,"29.1 µM [rising, partial curve, poor fit]",
COc1cccc(/C=N/Nc2ccc(S(=O)(=O)O)cc2)c1O,86.6,,
CN1CCN(NC(=O)Nc2ccc(Br)cc2Cl)CC1,,"0.58 µM [falling, single point]",
OC(COc1ccc(Cl)cc1)CN1C2=NCCCN2c2ccccc21 (configuration not stated),1.65,,"3.66 µM [falling, single point]"
CCc1ccc(N2CC(C(=O)Nc3ccc(S(=O)(=O)NCC4CCCO4)cc3)CC2=O)cc1 (configuration not stated),-3.85,,
S=C(NCCc1ccccc1)Nc1cccc2cnccc12,-45.7,"29.1 µM [falling, single point]","29.1 µM [falling, single point]"
O=C(CC(c1ccccc1)c1ccccc1)Nc1ccc(C(=O)O)cc1,14.4,,
O=C(NCCN1CCN(Cc2ccccc2)CC1)Nc1cc(Cl)cc(Cl)c1,-42.6,"0.103 µM [falling, full curve, poor fit]","29.1 µM [falling, single point]"
NS(=O)(=O)c1ccc(NC(=O)COc2cccc3ccccc23)cc1,14,"16.4 µM [rising, single point]",
CCN(CC)c1ccc(/C=C2/C(=O)c3ccc(C(=O)O)cc3C2=O)cc1,2.9,"5.8 µM [falling, full curve]","6.51 µM [falling, single point]"
COc1ccc(C2(CNC(=O)c3ccc(N)cc3)CCCC2)cc1,4.74,,
COc1ccccc1CCN=C(N)NS(=O)(=O)c1cc(F)ccc1F,24.5,"35.5 µM [rising, single point]",

# Just cell number change [%] and AC50 [2], for 3 of the compounds above:
Structure (SMILES) | cell number change [%] | AC50 [2]
O=C(/C=C/c1ccc(OCCCF)cc1)NCc1cccc(Cl)c1 | 23.5 | 
O=C1CCCC/C1=C/NCc1ccccc1 | 15.7 | 
COc1ccc2c(CC(=O)NNC(=O)c3cccs3)coc2c1 | 1.16 | 

# Going on with the list.

Structure (SMILES),cell number change [%],AC50 [1],AC50 [2]
COC(=O)c1c(NS(=O)(=O)c2ccc3ccccc3c2)sc2c1CCCC2,,"8.2 µM [rising, partial curve]","0.58 µM [rising, single point]"
O=C(Nc1nccs1)C1CCCN(S(=O)(=O)c2cccc3cccnc23)C1 (configuration not stated),-18.3,"3.26 µM [rising, full curve]",
Cc1csc(NC(=O)CN2C(=O)COc3ccc(Cl)cc32)n1,-15.8,,
C/C(CC(=O)Nc1ccccn1)=N\NC(=O)c1ccncc1,0.901,"29.1 µM [falling, single point]",
COc1ccccc1N1CCN(S(=O)(=O)c2cnc[nH]2)CC1,46.6,"0.517 µM [rising, partial curve]","32.6 µM [rising, single point]"
Cc1cccc(C(=O)NCCN2CCOCC2)c1[N+](=O)[O-],16.5,,
Cc1cc(-c2ccco2)n(CC(=O)NCCCc2ccccc2)n1,14.4,"0.731 µM [falling, full curve, poor fit]",
Cc1cc(Cl)n2c(nc3cc(F)c(F)cc32)c1C#N,-22,"29.1 µM [falling, single point]",
COc1c(Cl)cc(-c2noc(C)c2C(=O)NCCc2ccc(C)cc2)cc1Cl,,"0.58 µM [rising, partial curve]","2.91 µM [rising, partial curve]"
CCOc1ccccc1N1CCN(C(=O)c2cc(-c3cc(OC)ccc3OC)nc3ccccc23)CC1,7.58,,
O=C(CN1CCN(S(=O)(=O)c2cccc(Br)c2)CC1)N1CCCCC1,-14.8,,
COc1ccc(C2CC(=O)c3c(C)nc(N4CCN(Cc5ccccc5)CC4)nc3C2)cc1OC (configuration not stated),-29,"0.461 µM [rising, partial curve]",
N/C(=N\OC(=O)c1cccc(F)c1)c1ccccc1,-30.5,,"25.9 µM [falling, single point]"
COc1ccc(OCC(=O)Nc2nnc(C)s2)cc1,24.3,"7.31 µM [rising, partial curve]",
COc1cc([N+](=O)[O-])c2ncsc2c1,9.45,"0.0058 µM [rising, full curve, poor fit]",
CSCC[C@H](NC(=O)COc1ccc(Cl)cc1)c1nc2ccccc2[nH]1,-18.3,"18.4 µM [rising, single point]",
Cc1nc(SCC(=O)Nc2ccc(F)cc2)c2oc3ccccc3c2n1,12.2,"20.6 µM [rising, partial curve]",
Nc1cc([N+](=O)[O-])cc2oc(-c3ccccc3)cc12,-58.2,"5.17 µM [falling, full curve]","29.1 µM [falling, single point]"
COc1ccc(C(C)=O)cc1CN(C)C,-1.38,"0.58 µM [falling, full curve, poor fit]",
O=C(Oc1ccc([N+](=O)[O-])cc1)c1cc(-c2ccccc2)nc2ccccc12,,"29.1 µM [rising, single point]",
Cc1ccc(S(=O)(=O)c2nc(-c3ccco3)oc2SCC(N)=O)cc1,14.4,"6.51 µM [rising, partial curve, poor fit]",

# Some values from above.
# cell number change [%], Cc1cccc(C(=O)NCCN2CCOCC2)c1[N+](=O)[O-] reads 16.5
# cell number change [%], COc1ccc(C(C)=O)cc1CN(C)C reads -1.38
